In experiment [1] the target is T1, Streptag-Chs2-215-629 (S. cerevisiae) (UniProt P14180).
T1 sequence: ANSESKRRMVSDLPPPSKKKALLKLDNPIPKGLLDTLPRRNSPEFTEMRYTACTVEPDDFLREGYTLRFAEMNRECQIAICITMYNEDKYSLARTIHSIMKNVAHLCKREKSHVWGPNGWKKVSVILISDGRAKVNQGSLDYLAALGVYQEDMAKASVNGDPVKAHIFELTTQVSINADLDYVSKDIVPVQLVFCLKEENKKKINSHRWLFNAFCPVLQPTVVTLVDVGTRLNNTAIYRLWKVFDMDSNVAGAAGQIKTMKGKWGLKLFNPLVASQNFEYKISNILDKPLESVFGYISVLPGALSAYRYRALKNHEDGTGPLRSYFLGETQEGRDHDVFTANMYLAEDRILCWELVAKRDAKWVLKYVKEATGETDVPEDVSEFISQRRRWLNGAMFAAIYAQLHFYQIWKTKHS
Put plainly: pull-down; E. coli cultures expressing a Streptag fusion and a 6His fusion mixed after IPTG induction, one common cell extract with two recombinant proteins; Strep-Tactin Superflow (eluted with 2.5 mM d-Desthiobiotin), then Ni-NTA agarose (eluted with 250 mM imidazole); SDS-PAGE, Coomassie, immunoblot (anti-Streptag, anti-His), mass spectrometry of the band. For orientation: A western blot detects proteins with antibodies after separation by electrophoresis.

Experiment [2] concerns the target T2, Chs2-1-629 (two-hybrid fusion) (S. cerevisiae) (UniProt P14180).
T2 sequence: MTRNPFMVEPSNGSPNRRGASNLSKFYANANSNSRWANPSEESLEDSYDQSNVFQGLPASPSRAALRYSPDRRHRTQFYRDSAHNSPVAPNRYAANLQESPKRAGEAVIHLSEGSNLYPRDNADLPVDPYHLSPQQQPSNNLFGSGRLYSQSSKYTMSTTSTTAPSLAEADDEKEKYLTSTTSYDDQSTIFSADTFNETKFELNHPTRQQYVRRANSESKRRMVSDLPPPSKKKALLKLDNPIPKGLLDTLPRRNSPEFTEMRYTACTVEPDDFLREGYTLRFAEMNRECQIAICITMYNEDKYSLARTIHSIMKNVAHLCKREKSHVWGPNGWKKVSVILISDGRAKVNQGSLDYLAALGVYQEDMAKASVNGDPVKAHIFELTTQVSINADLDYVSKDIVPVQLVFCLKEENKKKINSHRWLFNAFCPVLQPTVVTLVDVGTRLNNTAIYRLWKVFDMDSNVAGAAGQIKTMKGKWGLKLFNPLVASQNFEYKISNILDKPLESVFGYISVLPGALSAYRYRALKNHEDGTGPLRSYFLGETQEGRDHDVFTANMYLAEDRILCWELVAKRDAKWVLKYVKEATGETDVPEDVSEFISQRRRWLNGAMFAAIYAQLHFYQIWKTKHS
Put plainly: two-hybrid; vectors pGADT7 and pGBKT7 (Clontech); growth for two or three days at 30°C on Synthetic Complete medium lacking leucine, tryptophan and histidine (selective).

For experiment [3], the target named is T3, Chs2-215-629 (two-hybrid fusion) (S. cerevisiae) (UniProt P14180).
T3 sequence: T1 sequence
Described as above.

The values below come from publication PMC4758748.

Substitutions are numbered along the chain they refer to. Names and notes keep the numbering of the source. No constants are given. Whether binding was seen depends on the method and setting. For some assays here: In cells and extracts the contact can be indirect. Some entries that bind do so weakly or less than the wild type. Sequences can lack the tags named with a protein.

B1: 6His-tagged-Inn1-C2 (domain or fragment, UniProt P53901 1-134)
chain: MSEEVWNGNQGILSVYVSKARDLPNLNKLDKQNVMLRLRIAHMTRASNTLHRAGQNPVFHYLEKFDITPEIKPLMYVEVYCDRRKKSPLPIGRCEIDLLNAIRADPKEGYCTWYELKRSGDEFAGTIFIELTFT
For the molecule B1, in experiment [1], the binding result is recorded as “binds”.

B2: 6His-tagged-Inn1-C2-K31A (domain or fragment, UniProt P53901 1-134)
chain: B1 chain with K31A
For B2, in experiment [1], the binding entry is “binds”.

B3: Cyk3-765-885 (two-hybrid fusion) (domain or fragment, UniProt Q07533 765-885)
chain: NMKYEFVIKIPSESIQKIELYIVEPQSRYLFVGNEYSFEVIQSPSDGIVYSSDEGPNQNRKQPMAIKSPSGRVHELVKSDPHFPYGTWKGSIKIKEPGVWSALVIADSGIGWSVFAEWLCV
On to B3, for which the binding entry in experiment [2] and in experiment [3] was “binds” in each case.

B4: Cyk3-475-594 (two-hybrid fusion) (domain or fragment, UniProt Q07533 475-594)
chain: ARYSTVLEKLRGIYIFCTEMFALTDDNGTSDFSAEPQNLEKILYRKHCTPYELTWLFKKLANSLGITCEIVIGFLKTPSAINWEFKYNHCWLRILVNKEWRFIDVILGNVTNPIHEFVNN
On to B4, for which the binding entry in experiment [2] and in experiment [3] was “no binding” in each case.

B5: Cyk3-1-475 (two-hybrid fusion) (domain or fragment, UniProt Q07533 1-475)
chain: MATNLTSLKPPFKVKARYGWSGQTKGDLGFLEGDIMEVTRIAGSWFYGKLLRNKKCSGYFPHNFVILLEERLNSSTENGRQPSKIVESFEKSNKVVIPPVPSRYSDERPRPKKKLSSSMPNSPKKPVDSLTKARKAKSKEMVNEKNIYNTQSSRHHNNSAPNLPLASHSKPQVRNFEESMNNPLPPLPPLPDLDNMRKTDKRAPKKSYSANDLHMARSSREYNYYKDNQKFYDGFIPEKRYSLEEDSISSGLFSNSQYLNDSACSSENSFALMSDFSATSAGSFARHKYAQSFSDSLQRSQNANGCSTKINDSQEFGDSNASSRNGKMGDILRKIIIPKRNTNIYSSSVSSPKSPKAYPKLPDIQNLNLSATPDEARDWIAVKCHLNRARTLTKYDKHPRYMRALEENRDLILHPQDSIYNGLNTNEVKGNTKPGLVDVELAELNIEYIDKMTWKRCIRDGTMTLDSWAQTTFSA
B5: the binding result in experiment [2] and in experiment [3] was “binds” each time.

B6: Cyk3-1-594 (two-hybrid fusion) (domain or fragment, UniProt Q07533 1-594)
chain: MATNLTSLKPPFKVKARYGWSGQTKGDLGFLEGDIMEVTRIAGSWFYGKLLRNKKCSGYFPHNFVILLEERLNSSTENGRQPSKIVESFEKSNKVVIPPVPSRYSDERPRPKKKLSSSMPNSPKKPVDSLTKARKAKSKEMVNEKNIYNTQSSRHHNNSAPNLPLASHSKPQVRNFEESMNNPLPPLPPLPDLDNMRKTDKRAPKKSYSANDLHMARSSREYNYYKDNQKFYDGFIPEKRYSLEEDSISSGLFSNSQYLNDSACSSENSFALMSDFSATSAGSFARHKYAQSFSDSLQRSQNANGCSTKINDSQEFGDSNASSRNGKMGDILRKIIIPKRNTNIYSSSVSSPKSPKAYPKLPDIQNLNLSATPDEARDWIAVKCHLNRARTLTKYDKHPRYMRALEENRDLILHPQDSIYNGLNTNEVKGNTKPGLVDVELAELNIEYIDKMTWKRCIRDGTMTLDSWAQTTFSARYSTVLEKLRGIYIFCTEMFALTDDNGTSDFSAEPQNLEKILYRKHCTPYELTWLFKKLANSLGITCEIVIGFLKTPSAINWEFKYNHCWLRILVNKEWRFIDVILGNVTNPIHEFVNN
Turning to B6, the binding entry in experiment [2] and in experiment [3] was “binds” throughout.

B7: Cyk3-475-764 (two-hybrid fusion) (domain or fragment, UniProt Q07533 475-764)
chain: ARYSTVLEKLRGIYIFCTEMFALTDDNGTSDFSAEPQNLEKILYRKHCTPYELTWLFKKLANSLGITCEIVIGFLKTPSAINWEFKYNHCWLRILVNKEWRFIDVILGNVTNPIHEFVNNRKIKKAENSYFLMAPLEMIYTHIPPREFEQHIVPSIDQLSALYLPLVFPSFFKNELKLYKFSTALSFLEDSEIYECSLEIPNDVEVFASVVIPTDNEEASSAYRNMELALTQIKKQKAESGRRIALIKAVLPPNVNKGSLYIHSGVRGTQTSIANIHPLSMMVPLTHKGS
Consider B7, for which the binding result in experiment [2] is “no binding”; in experiment [3], “binds”.

B8: Cyk3-475-885 (two-hybrid fusion) (domain or fragment, UniProt Q07533 475-885)
chain: ARYSTVLEKLRGIYIFCTEMFALTDDNGTSDFSAEPQNLEKILYRKHCTPYELTWLFKKLANSLGITCEIVIGFLKTPSAINWEFKYNHCWLRILVNKEWRFIDVILGNVTNPIHEFVNNRKIKKAENSYFLMAPLEMIYTHIPPREFEQHIVPSIDQLSALYLPLVFPSFFKNELKLYKFSTALSFLEDSEIYECSLEIPNDVEVFASVVIPTDNEEASSAYRNMELALTQIKKQKAESGRRIALIKAVLPPNVNKGSLYIHSGVRGTQTSIANIHPLSMMVPLTHKGSNMKYEFVIKIPSESIQKIELYIVEPQSRYLFVGNEYSFEVIQSPSDGIVYSSDEGPNQNRKQPMAIKSPSGRVHELVKSDPHFPYGTWKGSIKIKEPGVWSALVIADSGIGWSVFAEWLCV
B8: the binding result in experiment [2] and in experiment [3] was “binds” in each case.

B9: 6His-tagged-Cyk3 (protein, UniProt Q07533 1-885)
chain: MATNLTSLKPPFKVKARYGWSGQTKGDLGFLEGDIMEVTRIAGSWFYGKLLRNKKCSGYFPHNFVILLEERLNSSTENGRQPSKIVESFEKSNKVVIPPVPSRYSDERPRPKKKLSSSMPNSPKKPVDSLTKARKAKSKEMVNEKNIYNTQSSRHHNNSAPNLPLASHSKPQVRNFEESMNNPLPPLPPLPDLDNMRKTDKRAPKKSYSANDLHMARSSREYNYYKDNQKFYDGFIPEKRYSLEEDSISSGLFSNSQYLNDSACSSENSFALMSDFSATSAGSFARHKYAQSFSDSLQRSQNANGCSTKINDSQEFGDSNASSRNGKMGDILRKIIIPKRNTNIYSSSVSSPKSPKAYPKLPDIQNLNLSATPDEARDWIAVKCHLNRARTLTKYDKHPRYMRALEENRDLILHPQDSIYNGLNTNEVKGNTKPGLVDVELAELNIEYIDKMTWKRCIRDGTMTLDSWAQTTFSARYSTVLEKLRGIYIFCTEMFALTDDNGTSDFSAEPQNLEKILYRKHCTPYELTWLFKKLANSLGITCEIVIGFLKTPSAINWEFKYNHCWLRILVNKEWRFIDVILGNVTNPIHEFVNNRKIKKAENSYFLMAPLEMIYTHIPPREFEQHIVPSIDQLSALYLPLVFPSFFKNELKLYKFSTALSFLEDSEIYECSLEIPNDVEVFASVVIPTDNEEASSAYRNMELALTQIKKQKAESGRRIALIKAVLPPNVNKGSLYIHSGVRGTQTSIANIHPLSMMVPLTHKGSNMKYEFVIKIPSESIQKIELYIVEPQSRYLFVGNEYSFEVIQSPSDGIVYSSDEGPNQNRKQPMAIKSPSGRVHELVKSDPHFPYGTWKGSIKIKEPGVWSALVIADSGIGWSVFAEWLCV
As for B9, the binding result in experiment [1] is “binds”.

B10: full-length Inn1 (two-hybrid fusion) (protein, UniProt P53901 1-409)
chain: MSEEVWNGNQGILSVYVSKARDLPNLNKLDKQNVMLRLRIAHMTRASNTLHRAGQNPVFHYLEKFDITPEIKPLMYVEVYCDRRKKSPLPIGRCEIDLLNAIRADPKEGYCTWYELKRSGDEFAGTIFIELTFTPKVPRLNRDDLNKEMDRLDSSMAMRPIPPLPTESEYDYVHGSTMRQITPQCVSTSHEDKDEGQPYRNGNVFSMSSKSDTAVLANSNDPIILPPTFSASMGTTSTLETNDTAISNTSNTKFHFANLRKLKEKINIFKNPDSSTNNCQNESNKVDIEALQKAIGVTSLSYDEDDDDDDENDAFYSSSHRVSHNYNQPPLPPIPTRDDMSNYSSSRNTPLVRRDRPSRLDSSSPNSHPHPSGLNSPKLPPLPTTSNSNFNSRKNSMSPTRKRPPPRLS
As to B10, the binding result in experiment [3] was “binds”.

B11: Inn1-K31A (recombinant, E. coli) (protein, UniProt P53901 1-409)
chain: B10 chain with K31A
Regarding B11, the binding entry in experiment [1] is on record as “binds”.
